Reference: patent publication US20050048528A1
No constants are given. Whether binding was seen depends on the method and setting. Binding seen in cells or lysates may run through a third protein. Some results given as binding are weak or reduced against the parent protein; the word gives no strength. Sequences can lack the tags named with a protein.

Protein sequences, listed by entry. Tags and fused reporters are not part of them.
UniProt P38398: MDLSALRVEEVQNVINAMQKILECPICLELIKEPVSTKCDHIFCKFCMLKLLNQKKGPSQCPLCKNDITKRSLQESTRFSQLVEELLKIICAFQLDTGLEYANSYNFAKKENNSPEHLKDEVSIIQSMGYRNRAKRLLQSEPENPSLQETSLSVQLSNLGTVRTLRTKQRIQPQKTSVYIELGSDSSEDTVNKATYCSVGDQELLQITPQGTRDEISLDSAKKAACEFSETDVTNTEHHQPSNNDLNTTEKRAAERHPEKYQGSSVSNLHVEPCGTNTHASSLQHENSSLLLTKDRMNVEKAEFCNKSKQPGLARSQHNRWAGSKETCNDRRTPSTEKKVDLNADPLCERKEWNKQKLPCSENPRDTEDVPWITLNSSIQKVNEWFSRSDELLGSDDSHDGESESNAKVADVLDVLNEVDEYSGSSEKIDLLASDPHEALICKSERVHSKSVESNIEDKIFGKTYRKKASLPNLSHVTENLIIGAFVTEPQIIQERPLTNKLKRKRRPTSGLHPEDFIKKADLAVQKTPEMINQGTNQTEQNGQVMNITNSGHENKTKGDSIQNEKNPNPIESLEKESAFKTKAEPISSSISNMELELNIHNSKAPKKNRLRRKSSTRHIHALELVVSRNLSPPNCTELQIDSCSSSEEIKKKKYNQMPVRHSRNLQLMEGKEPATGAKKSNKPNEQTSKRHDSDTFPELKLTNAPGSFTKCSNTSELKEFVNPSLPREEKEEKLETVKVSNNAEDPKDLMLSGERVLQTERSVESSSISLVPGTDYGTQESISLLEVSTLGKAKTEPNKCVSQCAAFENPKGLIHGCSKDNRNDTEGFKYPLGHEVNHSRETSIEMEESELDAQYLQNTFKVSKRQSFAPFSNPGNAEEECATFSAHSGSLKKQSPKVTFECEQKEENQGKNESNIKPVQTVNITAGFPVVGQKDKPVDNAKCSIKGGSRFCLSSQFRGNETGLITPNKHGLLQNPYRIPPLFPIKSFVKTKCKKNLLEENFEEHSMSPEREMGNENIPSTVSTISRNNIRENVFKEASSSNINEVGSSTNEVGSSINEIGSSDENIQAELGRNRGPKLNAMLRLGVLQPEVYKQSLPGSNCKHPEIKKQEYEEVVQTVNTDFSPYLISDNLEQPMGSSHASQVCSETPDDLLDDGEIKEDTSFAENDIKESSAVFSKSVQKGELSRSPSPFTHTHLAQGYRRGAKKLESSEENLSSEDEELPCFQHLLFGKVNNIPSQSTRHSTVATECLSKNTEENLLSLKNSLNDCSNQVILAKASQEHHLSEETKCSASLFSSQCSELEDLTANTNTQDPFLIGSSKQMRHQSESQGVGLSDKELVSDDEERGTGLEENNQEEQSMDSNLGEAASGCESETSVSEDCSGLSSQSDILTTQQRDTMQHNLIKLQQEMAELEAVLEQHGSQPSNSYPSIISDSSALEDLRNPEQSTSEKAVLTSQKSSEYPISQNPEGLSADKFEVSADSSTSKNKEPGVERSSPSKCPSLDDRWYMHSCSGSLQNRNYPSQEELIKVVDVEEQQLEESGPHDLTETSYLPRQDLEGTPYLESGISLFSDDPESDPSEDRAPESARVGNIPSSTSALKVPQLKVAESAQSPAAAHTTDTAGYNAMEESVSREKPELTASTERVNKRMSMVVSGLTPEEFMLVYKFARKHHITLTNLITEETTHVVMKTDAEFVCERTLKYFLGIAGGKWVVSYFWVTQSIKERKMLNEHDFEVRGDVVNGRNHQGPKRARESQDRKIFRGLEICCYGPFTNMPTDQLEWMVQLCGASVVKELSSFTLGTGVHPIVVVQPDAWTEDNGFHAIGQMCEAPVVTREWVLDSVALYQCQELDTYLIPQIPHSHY

Tests used:
[1] = target: T1, Flag-tagged LMO4 (full-length) (UniProt P61968); test: co-immunoprecipitation (anti-Flag) / anti-HA western blot, transfected 293T cells
T1 sequence (looked up): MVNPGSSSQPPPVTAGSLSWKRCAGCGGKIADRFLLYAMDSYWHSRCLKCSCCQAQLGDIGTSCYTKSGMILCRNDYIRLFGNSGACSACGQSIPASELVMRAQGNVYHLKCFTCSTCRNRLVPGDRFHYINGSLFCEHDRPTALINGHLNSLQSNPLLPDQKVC

[2] = target: CtIP (residues 45-897), human, from pCMV-HA-ns311 (human) (UniProt Q99708); test: co-immunoprecipitation / western blot, transfected 293T cells (FIG. 6A)
[3] = target: CtIP (residues 45-897), human, from pCMV-HA-ns311 (human) (UniProt Q99708); test: co-immunoprecipitation / western blot, transfected 293T cells
[4] = target: myc-tagged wild-type BRCA1 (human) (UniProt P38398); test: co-immunoprecipitation (anti-myc) / anti-Flag western blot, transfected 293T cells (FIG. 9A)
[5] = target: myc-tagged wild-type BRCA1 (human) (UniProt P38398); test: co-immunoprecipitation (anti-myc) / anti-Flag western blot, transfected 293T cells; also seen without exogenous CtIP
[6] = target: CtIP (residues 45-897), human, from pCMV-HA-ns311 (human) (UniProt Q99708); test: co-immunoprecipitation from transfected 293T cells (FIG. 9A, 9C)
[7] = target: CtIP (residues 45-897), human, from pCMV-HA-ns311 (human) (UniProt Q99708); test: co-immunoprecipitation (anti-Flag) / anti-CtIP western blot, transfected 293T cells
[8] = target: CtIP (residues 45-897), human, from pCMV-HA-ns311 (human) (UniProt Q99708); test: co-immunoprecipitation (anti-Flag) / anti-CtIP western blot, transfected 293T cells (FIG. 6B)

B1: HA-CtIP (45-371) (protein, human, UniProt Q99708 45-371, looked up, not shown: small tags and cut ends)
chain: LKQERILDAQRLEEFFTKNQQLREQQKVLHETIKVLEDRLRAGLCDRCAVTEEHMRKKQQEFENIRQQNLKLITELMNERNTLQEENKKLSEQLQQKIENDQQHQAAELECEEDVIPDSPITAFSFSGVNRLRRKENPHVRYIEQTHTKLEHSVCANEMRKVSKSSTHPQHNPNENEILVADTYDQSQSPMAKAHGTSSYTPDKSSFNLATVVAETLGLGVQEESETQGPMSPLGDELYHCLEGNHKKQPFEESTRNTEDSLRFSDSTSKTPPQEELPTRVSSPVFGATSSIKSGLDLNTSLSPSLLQPGKKKHLKTLPFSNTCISR
binding [1]: binds

B2: HA-CtIP (371-897) (protein, human, UniProt Q99708 371-897, looked up, not shown: small tags and cut ends)
chain: RLEKTRSKSEDSALFTHHSLGSEVNKIIIQSSNKQILINKNISESLGEQNRTEYGKDSNTDKHLEPLKSLGGRTSKRKKTEEESEHEVSCPQASFDKENAFPFPMDNQFSMNGDCVMDKPLDLSDRFSAIQRQEKSQGSETSKNKFRQVTLYEALKTIPKGFSSSRKASDGNCTLPKDSPGEPCSQECIILQPLNKCSPDNKPSLQIKEENAVFKIPLRPRESLETENVLDDIKSAGSHEPIKIQTRSDHGGCELASVLQLNPCRTGKIKSLQNNQDVSFENIQWSIDPGADLSQYKMDVTVIDTKDGSQSKLGGETVDMDCTLVSETVLLKMKKQEQKGEKSSNEERKMNDSLEDMFDRTTHEEYESCLADSFSQAADEEEELSTATKKLHTHGDKQDKVKQKAFVEPYFKGDERETSLQNFPHIEVVRKKEERRKLLGHTCKECEIYYADMPAEEREKKLASCSRHRFRYIPPNTPENFWEVGFPSTQTCMERGYIKEDLDPCPRPKRRQPYNAIFSPKGKEQKT
binding [1]: binds

B3: HA-CtIP (620-897) (protein, human, UniProt Q99708 620-897, looked up, not shown: small tags and cut ends)
chain: HGGCELASVLQLNPCRTGKIKSLQNNQDVSFENIQWSIDPGADLSQYKMDVTVIDTKDGSQSKLGGETVDMDCTLVSETVLLKMKKQEQKGEKSSNEERKMNDSLEDMFDRTTHEEYESCLADSFSQAADEEEELSTATKKLHTHGDKQDKVKQKAFVEPYFKGDERETSLQNFPHIEVVRKKEERRKLLGHTCKECEIYYADMPAEEREKKLASCSRHRFRYIPPNTPENFWEVGFPSTQTCMERGYIKEDLDPCPRPKRRQPYNAIFSPKGKEQKT
binding [1]: binds

B4: Flag-tagged LMO4 (full-length) (protein, UniProt P61968 1-165, looked up, not shown: small tags and cut ends)
chain: T1 sequence (looked up)
binding [2]: binds
binding [3]: binds
binding [4]: binds
binding [5]: binds
binding [6]: binds

B5: Flag-tagged first LIM domain of LMO4 (residues 1-82) (protein, UniProt P61968 1-82, looked up, not shown: small tags and cut ends)
chain: MVNPGSSSQPPPVTAGSLSWKRCAGCGGKIADRFLLYAMDSYWHSRCLKCSCCQAQLGDIGTSCYTKSGMILCRNDYIRLFG
binding [7]: binds
binding [8]: binds
